These are yes or no findings as the source states them, for the method shown. Binding seen in cells or lysates may run through a third protein. For some assays here: Binding can be weak; no strength is given. For some assays here: Where a sequence is shown, tags or fusion partners need not be part of it. Values belong to the binder of their own block, whether it stands above or below them.
Columns and labels:
[1] = biological target: ADAM17 fused to a fragment of Gaussia princeps luciferase (UniProt P78536); assay: split reporter; Gaussia princeps luciferase protein complementation in transfected HEK293T cells; cells lysed in passive lysis buffer, coelenterazine added; normalized luciferase ratio (NLR) above 3.5 taken as specific interaction
ADAM17-YPet [2] = biological target: ADAM17-YPet (UniProt P78536); assay: FRET or BRET; FRET microscopy as in HEK293T, but in ADAM10/ADAM17-deficient HEK293T cells (Figure S2A)
ADAM17-YPet [3] = biological target: ADAM17-YPet (UniProt P78536); assay: FRET or BRET; FRET microscopy of live transfected HEK293T cells; Tetraspanin-CyPet as donor, ADAM17-YPet or TNFα-YPet as acceptor; precision FRET after subtraction of spectral bleed through
[4] = biological target: ADAM17 fused to a fragment of Gaussia princeps luciferase, P78536; assay: split reporter; Gaussia princeps luciferase protein complementation in transfected HEK293T cells; cells lysed in passive lysis buffer, coelenterazine added; normalized luciferase ratio (NLR) above 3.5 taken as specific interaction; conditions: remark: other sources report otherwise

Amino acid sequences for entries named in this document (tags omitted). A change or cut given only in a name is not applied to a line headed by its entry.
UniProt P78536: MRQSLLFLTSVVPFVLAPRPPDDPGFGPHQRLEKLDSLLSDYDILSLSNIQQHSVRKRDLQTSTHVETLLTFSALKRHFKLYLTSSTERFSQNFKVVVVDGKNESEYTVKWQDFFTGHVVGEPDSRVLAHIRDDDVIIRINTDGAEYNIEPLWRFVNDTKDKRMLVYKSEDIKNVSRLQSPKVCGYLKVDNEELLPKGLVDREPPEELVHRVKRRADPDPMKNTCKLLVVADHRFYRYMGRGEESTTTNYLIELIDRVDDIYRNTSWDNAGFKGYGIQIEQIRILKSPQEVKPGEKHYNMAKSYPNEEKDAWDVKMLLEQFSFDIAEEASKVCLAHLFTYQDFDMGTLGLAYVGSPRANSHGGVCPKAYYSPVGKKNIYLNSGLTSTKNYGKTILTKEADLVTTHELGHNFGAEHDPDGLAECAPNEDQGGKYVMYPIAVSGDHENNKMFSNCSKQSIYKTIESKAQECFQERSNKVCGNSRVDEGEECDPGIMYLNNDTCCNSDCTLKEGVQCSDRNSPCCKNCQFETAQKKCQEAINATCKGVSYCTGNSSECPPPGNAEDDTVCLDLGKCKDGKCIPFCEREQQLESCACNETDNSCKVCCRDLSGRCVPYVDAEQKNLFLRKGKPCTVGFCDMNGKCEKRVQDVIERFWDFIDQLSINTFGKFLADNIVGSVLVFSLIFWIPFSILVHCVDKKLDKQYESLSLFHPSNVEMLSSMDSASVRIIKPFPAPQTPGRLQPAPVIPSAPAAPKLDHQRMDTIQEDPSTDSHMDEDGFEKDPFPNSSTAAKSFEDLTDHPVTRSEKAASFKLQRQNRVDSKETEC

- binding [1]: binds
B1: CD81 fused to a fragment of Gaussia princeps luciferase (protein, UniProt P60033 1-236)
chain: MGVEGCTKCIKYLLFVFNFVFWLAGGVILGVALWLRHDPQTTNLLYLELGDKPAPNTFYVGIYILIAVGAVMMFVGFLGCYGAIQESQCLLGTFFTCLVILFACEVAAGIWGFVNKDQIAKDVKQFYDQALQQAVVDDDANNAKAVVKTFHETLDCCGSSTLTALTTSVLKNNLCPSGSNIISNLFKEDCHQKIDDLFSGKLYLIGIAAIVVAVIMIFEMILSMVLCCGIRNSSVY

- binding [1]: binds
B2: Tspan8 fused to a fragment of Gaussia princeps luciferase (protein, UniProt P19075 1-237)
chain: MAGVSACIKYSMFTFNFLFWLCGILILALAIWVRVSNDSQAIFGSEDVGSSSYVAVDILIAVGAIIMILGFLGCCGAIKESRCMLLLFFIGLLLILLLQVATGILGAVFKSKSDRIVNETLYENTKLLSATGESEKQFQEAIIVFQEEFKCCGLVNGAADWGNNFQHYPELCACLDKQRPCQSYNGKQVYKETCISFIKDFLAKNLIIVIGISFGLAVIEILGLVFSMVLYCQIGNK

- binding (ADAM17-YPet [2]): binds
- binding (ADAM17-YPet [3]): binds
B3: Tspan8-CyPet (protein, UniProt P19075 1-237)
chain: B2 chain

- binding [4]: no binding
B4: CD9 fused to a fragment of Gaussia princeps luciferase, P21926 1-228 (protein)
chain: MPVKGGTKCIKYLLFGFNFIFWLAGIAVLAIGLWLRFDSQTKSIFEQETNNNNSSFYTGVYILIGAGALMMLVGFLGCCGAVQESQCMLGLFFGFLLVIFAIEIAAAIWGYSHKDEVIKEVQEFYKDTYNKLKTKDEPQRETLKAIHYALNCCGLAGGVEQFISDICPKKDVLETFTVKSCPDAIKEVFDNKFHIIGAVGIGIAVVMIFGMIFSMILCCAIRRNREMV
